These are yes or no findings as the source states them, for the method shown.

Sequences of proteins named here, by UniProt entry; tags and fusion partners are left off. A change or cut given only in a name is not applied to a line headed by its entry.
UniProt Q54G78: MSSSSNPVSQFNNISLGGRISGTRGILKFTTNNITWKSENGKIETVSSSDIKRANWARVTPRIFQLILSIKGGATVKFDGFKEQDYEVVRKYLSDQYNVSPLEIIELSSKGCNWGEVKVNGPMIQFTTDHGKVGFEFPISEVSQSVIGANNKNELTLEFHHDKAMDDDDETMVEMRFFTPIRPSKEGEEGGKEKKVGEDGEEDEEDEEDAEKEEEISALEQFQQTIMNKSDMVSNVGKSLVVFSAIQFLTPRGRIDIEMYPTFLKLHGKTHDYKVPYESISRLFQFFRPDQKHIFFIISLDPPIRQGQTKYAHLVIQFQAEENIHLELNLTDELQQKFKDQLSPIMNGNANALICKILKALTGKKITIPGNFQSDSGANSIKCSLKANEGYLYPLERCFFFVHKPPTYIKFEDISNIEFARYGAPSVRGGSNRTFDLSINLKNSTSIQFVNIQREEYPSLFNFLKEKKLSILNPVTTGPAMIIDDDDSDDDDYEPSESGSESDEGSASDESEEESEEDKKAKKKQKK
UniProt Q54S43: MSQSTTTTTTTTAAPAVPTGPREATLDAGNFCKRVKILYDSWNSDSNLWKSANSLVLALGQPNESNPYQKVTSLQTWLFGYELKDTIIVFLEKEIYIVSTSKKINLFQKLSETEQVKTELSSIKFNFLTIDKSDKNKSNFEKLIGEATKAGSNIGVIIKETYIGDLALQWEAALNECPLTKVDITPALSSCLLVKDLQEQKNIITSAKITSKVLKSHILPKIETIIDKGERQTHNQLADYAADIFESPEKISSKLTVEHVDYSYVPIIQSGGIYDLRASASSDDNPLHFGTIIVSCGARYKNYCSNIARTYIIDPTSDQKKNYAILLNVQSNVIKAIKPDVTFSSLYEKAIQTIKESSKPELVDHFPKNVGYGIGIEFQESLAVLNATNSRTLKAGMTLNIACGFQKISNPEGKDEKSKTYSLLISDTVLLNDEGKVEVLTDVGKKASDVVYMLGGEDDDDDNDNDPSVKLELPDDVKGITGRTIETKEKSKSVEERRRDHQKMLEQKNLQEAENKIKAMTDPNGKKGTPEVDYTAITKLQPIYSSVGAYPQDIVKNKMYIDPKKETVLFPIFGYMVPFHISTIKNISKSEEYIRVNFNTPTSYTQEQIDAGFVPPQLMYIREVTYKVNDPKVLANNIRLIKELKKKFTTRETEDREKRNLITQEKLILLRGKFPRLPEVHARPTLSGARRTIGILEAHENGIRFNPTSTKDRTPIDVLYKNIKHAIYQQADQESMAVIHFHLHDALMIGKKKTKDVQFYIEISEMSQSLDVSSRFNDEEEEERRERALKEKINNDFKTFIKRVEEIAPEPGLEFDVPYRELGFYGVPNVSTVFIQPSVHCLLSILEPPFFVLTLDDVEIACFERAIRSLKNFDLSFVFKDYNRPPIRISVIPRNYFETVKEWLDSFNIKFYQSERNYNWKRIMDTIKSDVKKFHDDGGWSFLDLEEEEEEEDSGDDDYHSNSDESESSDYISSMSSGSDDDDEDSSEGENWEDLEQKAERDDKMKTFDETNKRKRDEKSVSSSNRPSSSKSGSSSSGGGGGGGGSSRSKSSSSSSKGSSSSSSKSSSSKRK

This assay addresses DdFACT complex (DdSSRP1 residues 1–478 with DdSpt16 residues 1–955) (Dictyostelium discoideum) (UniProt Q54G78+Q54S43). Briefly: AUC; sedimentation velocity (4 °C, 49,000 rpm) and sedimentation equilibrium; 25 mM Tris-HCl pH 7.6, 200 mM NaCl, 2 mM TCEP; SE fitted with a single species model; both purified.

Consider “DdFACT complex (DdSSRP1 residues 1–478 with DdSpt16 residues 1–955) (from UniProt Q54G78 1-478; Q54S43 1-955)”, for which the binding entry is “no binding (tested: 0.5 and 0.2 mg/ml)”.

The values above are taken from paper PMC6028955.
